# Measured values from the supplement of paper PMC12009310.
# Structures can show the parent of a compound that is named as a salt. ± gives the standard deviation of the averaged measurements. Some of the results follow. Baselines shift from plate to plate; read single values as rough.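 The cells are a mouse kidney inner medullary collecting duct line, silenced either for the ciliary gene Rpgrip1l or with a non-targeting control siRNA.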
# Tests used:
# mIMCD3 [1] = assay: robust z score of cell number vs plate controls; higher = more cells (less cytotoxic); conditions: 10 µM, 48 h
# mIMCD3 [2] = assay: robust z score of cilia incidence (% cells with single cilium) vs plate controls; higher = more ciliated cells; conditions: 10 µM; 48 h; siRNA: siScr
# mIMCD3 [3] = assay: robust z score of cilia incidence (% cells with single cilium) vs plate controls; higher = more ciliated cells (rescue of cilia loss); conditions: 10 µM; 48 h; siRNA: siRpgrip1l
SMILES,robust z score of cell number (mIMCD3 [1]; siRNA: siRpgrip1l),robust z score of cell number (mIMCD3 [1]; siRNA: siScr),robust z score of cilia incidence (mIMCD3 [2]),robust z score of cilia incidence (mIMCD3 [3])
COc1ccc(Nc2nccc(NCCO)n2)cc1 [Cardiogenol C hydrochloride],-5.86 ± 1.2,-6.11 ± 3,5.218 ± 0.052,-10.1 ± 3.8
Cc1cc(F)c(Nc2ncnc3cc(OCc4ccccc4)ccc23)cc1O,-32.8 ± 11,-144 ± 110,-64.7 ± 10,-56.3 ± 9.5
OC[C@H]1O[C@@H](n2cnc3c(NC4CCCC4)ncnc32)[C@H](O)[C@@H]1O [N6-Cyclopentyladenosine],-1.77 ± 1.5,-1.9 ± 0.48,-5.54 ± 0.4,-18.8 ± 9.9
COC(=O)/C=C/c1cccc(N(Cc2ccc(-c3ccc(N(C)C)cc3)cc2)C(=O)C2CCCCC2)c1 [Fexaramine],-11.4 ± 1.5,-45.3 ± 29,-10.3 ± 1.4,-22.5 ± 4.2
O=C(OCCN1CCCCC1)c1c[nH]c2ccccc12,3.68 ± 1.1,3.21 ± 0.76,-14.1 ± 1,-17.6 ± 2.2
COCC(=O)O[C@]1(CCN(C)CCCc2nc3ccccc3[nH]2)CCc2cc(F)ccc2[C@@H]1C(C)C [Mibefradil dihydrochloride],-41.1 ± 27,-54.5 ± 29,-33.3 ± 15,-58.9 ± 5.2
CCOCC(O)COc1ccc(NC(=O)CC[S+](C)C)cc1 (configuration not stated) [Suplatast tosylate],-5.82 ± 4.7,0.0141 ± 2.3,-1.83 ± 2.8,-9.17 ± 3.6
CC(NC(=O)c1ccccc1/N=C/c1c(O)ccc2ccccc12)c1ccccc1 (configuration not stated) [Sirtinol],-23.5 ± 26,-4.89 ± 0.29,-7.22 ± 12,-7.97 ± 4
c1cc(CN2CCCCC2)cc(OCCCNc2nc3ccccc3s2)c1 [Zolantidine dimaleate],-30.4 ± 17,-14.7 ± 2.3,-14.2 ± 1.9,-34.8 ± 4.1
CCn1c(=O)[nH]c2cc(Cl)c(Cl)cc21,-71.7 ± 58,-8.33 ± 2.5,0.45 ± 8.8,-10.4 ± 2.3
O=C(NCCNCC(O)COc1ccc(O)cc1)N1CCOCC1 (configuration not stated) [Xamoterol hemifumarate],-1.82 ± 0.61,1.9 ± 0.35,-1.38 ± 2.8,-8.8 ± 3.8
COC1(C2=NCCN2)COc2ccccc2O1 (configuration not stated),-41.8 ± 15,-1.83 ± 0.47,-4.15 ± 7,-9.78 ± 1
NC(C(=O)O)c1ccc(C(=O)O)c(C(=O)O)c1 (configuration not stated),-21.7 ± 12,-0.565 ± 0.39,0.493 ± 8,-7.51 ± 2.5
O=C(O)CCC/C=C\CC1C(O)CC(O)C1/C=C/C(O)COc1cccc(Cl)c1 (racemic) [(±)-Cloprostenol sodium salt],-6.16 ± 4.2,-1.6 ± 2.3,1.24 ± 0.22,-11.1 ± 6.8
CC(C)NCC(O)COc1cccc2ccccc12 (configuration not stated) [Propranolol hydrochloride],-4.42 ± 0.2,-5.2 ± 10,0.18 ± 0.5,-8.41 ± 4.6
O=C(Nc1ccccc1)C12CC1C(=NO)c1ccccc1O2 (configuration not stated),-13.7 ± 11,-1.26 ± 6.3,-3.28 ± 0.57,-23.5 ± 1.5
CCCNC(=O)N1N=C(c2ccc(N)cc2)c2cc3c(cc2C1C)OCO3 (configuration not stated),-11.7 ± 0.51,-13.8 ± 11,-21.2 ± 6.2,-20.9 ± 3

# Part of the list above, with bars between the fields:
SMILES | robust z score of cell number (mIMCD3 [1]; siRNA: siRpgrip1l) | robust z score of cell number (mIMCD3 [1]; siRNA: siScr) | robust z score of cilia incidence (mIMCD3 [2]) | robust z score of cilia incidence (mIMCD3 [3])
O=C(OCCN1CCCCC1)c1c[nH]c2ccccc12 | 3.68 ± 1.1 | 3.21 ± 0.76 | -14.1 ± 1 | -17.6 ± 2.2
CC(C)NCC(O)COc1cccc2ccccc12 (configuration not stated) [Propranolol hydrochloride] | -4.42 ± 0.2 | -5.2 ± 10 | 0.18 ± 0.5 | -8.41 ± 4.6

# Continuation.

SMILES,robust z score of cell number (mIMCD3 [1]; siRNA: siRpgrip1l),robust z score of cell number (mIMCD3 [1]; siRNA: siScr),robust z score of cilia incidence (mIMCD3 [2]),robust z score of cilia incidence (mIMCD3 [3])
CC(C)NCC(O)c1ccc2ccccc2c1 (configuration not stated) [Pronethalol hydrochloride],-2.43 ± 0.59,-4.74 ± 0.33,-0.158 ± 3.6,-1.15 ± 0.98
N=C(CC(O)COc1ccccc1-c1ccccc1)N1CCCCC1 (configuration not stated),-23.3 ± 1.6,-24.1 ± 12,-22.1 ± 12,-20.7 ± 3.2
CN/C(=N\c1ccc(C2=NNC(=O)CC2C)cc1)NC#N (configuration not stated) [Siguazodan],-9.41 ± 6.7,-0.505 ± 2.8,1.09 ± 0.38,-14.2 ± 1.8
COc1cc(N)c(Cl)cc1C(=O)CCC1CCN(CCNS(C)(=O)=O)CC1,-12.3 ± 0.8,-12.6 ± 10,-26.4 ± 11,-21 ± 1.8
CCOC(=O)c1ncc2[nH]c3cccc(OC(C)C)c3c2c1C,-41.3 ± 27,-54.4 ± 29,-34.1 ± 15,-51.4 ± 25
CCCc1c(OCC(O)COc2ccc3c(=O)cc(C(=O)O)oc3c2CCC)ccc(C(C)=O)c1O (configuration not stated),-4.74 ± 1.1,-2.68 ± 1.9,-0.52 ± 0.6,-7.69 ± 5.5
c1ccc(-c2n[nH]c3c2oc2ccccc23)cc1,-11.1 ± 3.8,-19.3 ± 21,1.01 ± 8.2,-19.7 ± 25
O=C(O)c1ccc(C=C2SC(=S)N(c3cccc(C(F)(F)F)c3)C2=O)cc1,-27.2 ± 37,-4.29 ± 1.6,-7.99 ± 11,-13 ± 16
N#C/C(=C\c1ccc(O)c(O)c1)C(=O)NCc1ccccc1,-49.8 ± 55,-18.7 ± 16,-0.572 ± 0.42,-9.32 ± 4.2
Cc1nc2ccc(NC(=O)Nc3ccnc4cccnc34)cc2o1,-38 ± 35,-24.4 ± 7.4,-69.9 ± 50,-59.3 ± 31
NS(=O)(=O)c1cccc2c1c([N+](=O)[O-])cc1nc(O)c(O)nc12,-49.4 ± 78,-3.42 ± 6.5,0.853 ± 2.1,-25.9 ± 32
COc1cc2ncnc(Nc3ccc(Cl)cc3F)c2cc1OC,-25.4 ± 7.5,-117 ± 88,-24.3 ± 1.5,-35.7 ± 6.5
Oc1cc2c(c(Cl)c1O)CCNCC2c1ccccc1 (configuration not stated),-37.1 ± 41,-6.48 ± 3.9,2.21 ± 1.6,-82.6 ± 77
O=C(c1ccc(F)cc1)C1CCN(CCCCc2ccccc2)CC1 [4-(4-Fluorobenzoyl)-1-(4-phenylbutyl)-piperidine oxalate],-9.33 ± 7,-7.92 ± 10,-4.9 ± 2,-13 ± 8.7
NC[C@@H]1O[C@H](C23CC4CC(CC(C4)C2)C3)Cc2c1ccc(O)c2O,-42.9 ± 39,-44.2 ± 29,-108 ± 78,-66.2 ± 46
CCCCCCC(=O)OC1CC(C)(C)NC(C)(C)C1 [TMPH hydrochloride],-12.6 ± 6.1,-14.3 ± 5,-28.1 ± 22,-27 ± 15
